The source of these data is the supplement of paper PMC12819154, “High-throughput peptide-centric local stability assay extends protein–ligand identification to membrane proteins, tissues and bacteria” (Nature Structural & Molecular Biology, 2025).

By UniProt entry, the sequences of proteins in these tests, tags left out. Where a name states a change or a piece, a line headed by the entry shows the natural chain unless it says otherwise.
UniProt Q61152: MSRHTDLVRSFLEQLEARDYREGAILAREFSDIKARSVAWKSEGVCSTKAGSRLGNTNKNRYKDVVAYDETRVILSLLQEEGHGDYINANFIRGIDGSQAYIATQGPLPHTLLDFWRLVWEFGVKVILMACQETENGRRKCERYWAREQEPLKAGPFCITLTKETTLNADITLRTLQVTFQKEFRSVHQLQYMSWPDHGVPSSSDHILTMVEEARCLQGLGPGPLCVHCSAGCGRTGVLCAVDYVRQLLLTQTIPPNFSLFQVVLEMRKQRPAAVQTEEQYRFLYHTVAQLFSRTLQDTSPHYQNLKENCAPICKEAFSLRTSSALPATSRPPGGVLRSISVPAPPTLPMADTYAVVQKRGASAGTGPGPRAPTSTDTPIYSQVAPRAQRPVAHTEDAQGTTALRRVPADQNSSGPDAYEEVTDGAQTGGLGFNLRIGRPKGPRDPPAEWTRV
UniProt Q5FWK3: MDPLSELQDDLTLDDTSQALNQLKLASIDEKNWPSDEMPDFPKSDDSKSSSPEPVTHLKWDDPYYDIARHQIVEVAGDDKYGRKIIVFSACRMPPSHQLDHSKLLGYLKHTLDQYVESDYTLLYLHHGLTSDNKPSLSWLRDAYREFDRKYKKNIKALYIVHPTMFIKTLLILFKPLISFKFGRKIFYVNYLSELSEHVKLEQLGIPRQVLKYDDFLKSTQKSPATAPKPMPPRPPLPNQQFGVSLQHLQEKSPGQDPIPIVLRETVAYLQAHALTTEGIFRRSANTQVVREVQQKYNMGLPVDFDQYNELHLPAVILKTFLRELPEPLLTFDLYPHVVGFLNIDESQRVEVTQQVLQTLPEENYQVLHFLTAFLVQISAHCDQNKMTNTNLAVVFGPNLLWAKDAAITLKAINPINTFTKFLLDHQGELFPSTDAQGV
UniProt Q61187: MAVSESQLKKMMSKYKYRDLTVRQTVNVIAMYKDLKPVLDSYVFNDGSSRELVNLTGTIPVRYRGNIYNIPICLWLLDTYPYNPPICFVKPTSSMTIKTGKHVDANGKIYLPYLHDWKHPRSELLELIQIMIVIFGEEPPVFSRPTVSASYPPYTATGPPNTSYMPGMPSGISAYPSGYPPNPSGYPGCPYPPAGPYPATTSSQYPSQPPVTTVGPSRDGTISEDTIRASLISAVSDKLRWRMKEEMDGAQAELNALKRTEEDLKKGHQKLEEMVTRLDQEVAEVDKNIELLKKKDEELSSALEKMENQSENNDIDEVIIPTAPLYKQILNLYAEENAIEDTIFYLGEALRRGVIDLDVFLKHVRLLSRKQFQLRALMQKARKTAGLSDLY
UniProt Q60I26: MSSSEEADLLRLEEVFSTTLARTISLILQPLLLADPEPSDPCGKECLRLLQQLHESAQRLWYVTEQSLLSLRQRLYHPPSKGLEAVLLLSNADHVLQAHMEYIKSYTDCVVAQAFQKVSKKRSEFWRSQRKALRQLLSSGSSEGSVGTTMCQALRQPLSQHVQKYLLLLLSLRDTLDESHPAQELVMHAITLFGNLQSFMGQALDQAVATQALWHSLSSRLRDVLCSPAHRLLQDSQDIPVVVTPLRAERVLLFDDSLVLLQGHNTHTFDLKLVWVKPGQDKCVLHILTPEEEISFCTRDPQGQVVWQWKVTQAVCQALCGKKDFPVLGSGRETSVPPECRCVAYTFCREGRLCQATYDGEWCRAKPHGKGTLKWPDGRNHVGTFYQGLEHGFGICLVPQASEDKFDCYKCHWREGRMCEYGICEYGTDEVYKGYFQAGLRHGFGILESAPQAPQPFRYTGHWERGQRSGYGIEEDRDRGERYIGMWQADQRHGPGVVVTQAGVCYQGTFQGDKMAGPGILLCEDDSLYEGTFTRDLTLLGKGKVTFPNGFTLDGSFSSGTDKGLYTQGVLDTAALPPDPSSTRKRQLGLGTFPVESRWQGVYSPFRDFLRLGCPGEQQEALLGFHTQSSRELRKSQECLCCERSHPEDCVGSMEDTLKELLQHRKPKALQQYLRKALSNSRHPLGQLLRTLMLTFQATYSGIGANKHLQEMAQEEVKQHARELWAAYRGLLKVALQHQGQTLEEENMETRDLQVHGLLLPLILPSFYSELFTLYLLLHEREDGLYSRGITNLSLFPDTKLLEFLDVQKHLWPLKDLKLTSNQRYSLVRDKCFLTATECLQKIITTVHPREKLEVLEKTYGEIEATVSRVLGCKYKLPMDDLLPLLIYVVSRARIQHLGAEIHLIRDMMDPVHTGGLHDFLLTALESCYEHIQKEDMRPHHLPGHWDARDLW

The list shows a part of the results. Most entries show no effect beyond the scatter of the controls.

Compound in this assay: CN[C@@H]1C[C@H]2O[C@@](C)([C@@H]1OC)n1c3ccccc3c3c4c(c5c6ccccc6n2c5c31)C(=O)NC4 [staurosporine]
The assay can be described thus: log2 fold change of tryptic peptide abundance, ligand vs vehicle (limited proteolysis) (log2 ratio); higher = more trypsin-susceptible (destabilized). The settings on record: ligand concentration: 20 uM; sample: mouse liver crude lysate; replicate design: treated separately.
Regarding “UniProt Q61152 (peptide sequence: AQRPVAHTEDAQGTTALR, peptide start residue: 388)”, the log2 fold change was -0.216.

“UniProt Q5FWK3 (peptide sequence: HQIVEVAGDDKYGR, peptide start residue: 70)”: the log2 fold change is -0.395.

Regarding “UniProt Q61187 (peptide sequence: ELVNLTGTIPVR, peptide start residue: 51)”, the log2 fold change was -0.907.

Regarding “UniProt Q60I26 (peptide sequence: IQHLGAEIHLIR, peptide start residue: 895)”, the log2 fold change came to 0.25.
